According to article doi:10.1101/2024.09.27.614885:
Where two headings read alike, the source gives them in different places. No constants are given. Whether binding was seen depends on the method and setting. In cells and extracts the contact can be indirect. Some results given as binding are weak or reduced against the parent protein; the word gives no strength.

Chains of the proteins cited; added tags and fusions are not shown.
UniProt P34241: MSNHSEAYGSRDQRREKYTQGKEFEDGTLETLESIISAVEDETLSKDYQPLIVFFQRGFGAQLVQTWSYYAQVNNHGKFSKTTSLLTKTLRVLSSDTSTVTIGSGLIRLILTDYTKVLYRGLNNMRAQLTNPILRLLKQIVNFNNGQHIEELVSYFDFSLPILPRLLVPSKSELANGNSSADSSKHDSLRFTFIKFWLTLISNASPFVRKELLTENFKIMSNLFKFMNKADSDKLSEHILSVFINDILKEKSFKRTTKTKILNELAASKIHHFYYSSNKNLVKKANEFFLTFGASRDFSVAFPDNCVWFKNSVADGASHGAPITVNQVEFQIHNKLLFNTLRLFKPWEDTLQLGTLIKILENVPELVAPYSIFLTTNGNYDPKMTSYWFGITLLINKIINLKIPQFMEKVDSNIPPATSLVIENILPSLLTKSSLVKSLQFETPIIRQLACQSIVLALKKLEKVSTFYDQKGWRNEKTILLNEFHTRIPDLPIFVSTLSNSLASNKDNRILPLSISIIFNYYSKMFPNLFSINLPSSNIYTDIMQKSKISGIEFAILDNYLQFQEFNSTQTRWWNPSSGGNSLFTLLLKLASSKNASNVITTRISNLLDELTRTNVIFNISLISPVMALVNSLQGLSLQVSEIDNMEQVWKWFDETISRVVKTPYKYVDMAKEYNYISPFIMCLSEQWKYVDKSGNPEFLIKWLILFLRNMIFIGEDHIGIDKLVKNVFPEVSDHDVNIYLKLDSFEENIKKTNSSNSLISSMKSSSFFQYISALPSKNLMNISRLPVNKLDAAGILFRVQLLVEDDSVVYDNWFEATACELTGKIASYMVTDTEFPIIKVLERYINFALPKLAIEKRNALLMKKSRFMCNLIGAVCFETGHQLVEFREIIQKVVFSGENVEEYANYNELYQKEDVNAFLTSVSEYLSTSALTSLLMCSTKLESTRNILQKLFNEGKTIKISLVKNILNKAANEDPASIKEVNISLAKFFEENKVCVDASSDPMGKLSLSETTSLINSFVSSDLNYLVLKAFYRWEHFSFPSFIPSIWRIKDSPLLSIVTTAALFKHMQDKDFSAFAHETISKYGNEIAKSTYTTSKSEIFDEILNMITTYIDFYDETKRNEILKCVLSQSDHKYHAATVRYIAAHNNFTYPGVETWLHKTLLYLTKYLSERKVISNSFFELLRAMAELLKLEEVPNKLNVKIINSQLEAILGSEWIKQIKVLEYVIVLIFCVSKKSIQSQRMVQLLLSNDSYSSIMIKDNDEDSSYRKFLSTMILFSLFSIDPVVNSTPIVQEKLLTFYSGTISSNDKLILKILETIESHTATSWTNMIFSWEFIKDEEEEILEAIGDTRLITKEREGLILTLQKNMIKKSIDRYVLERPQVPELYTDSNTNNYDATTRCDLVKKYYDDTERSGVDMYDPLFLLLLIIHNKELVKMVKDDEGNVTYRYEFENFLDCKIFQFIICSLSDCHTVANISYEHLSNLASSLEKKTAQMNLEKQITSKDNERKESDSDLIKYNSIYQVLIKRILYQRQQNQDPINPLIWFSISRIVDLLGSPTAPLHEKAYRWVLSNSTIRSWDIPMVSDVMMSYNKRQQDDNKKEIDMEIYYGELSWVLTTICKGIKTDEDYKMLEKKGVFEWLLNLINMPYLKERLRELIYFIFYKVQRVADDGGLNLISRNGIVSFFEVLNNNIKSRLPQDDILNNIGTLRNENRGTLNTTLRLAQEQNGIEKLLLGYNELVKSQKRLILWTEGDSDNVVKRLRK

Tests used:
Rsa3-FPZ (S. cerevisiae) [1] = target: T1, Rsa3-FPZ (S. cerevisiae) (UniProt Q05942); test: co-IP
T1 sequence: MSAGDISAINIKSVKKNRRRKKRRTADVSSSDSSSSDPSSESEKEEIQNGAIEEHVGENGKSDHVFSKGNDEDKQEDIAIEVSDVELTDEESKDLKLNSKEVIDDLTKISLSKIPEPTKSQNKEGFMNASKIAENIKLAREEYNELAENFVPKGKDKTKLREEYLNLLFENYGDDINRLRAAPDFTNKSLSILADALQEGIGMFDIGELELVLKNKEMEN

Rsa3-FPZ (S. cerevisiae) [2] = target: T1, Rsa3-FPZ (S. cerevisiae); test: co-IP; remark: listed apart in the source

binding (Rsa3-FPZ (S. cerevisiae) [1]): binds
binding (Rsa3-FPZ (S. cerevisiae) [2]): binds
Substance: Npa1 (from UniProt P34241 1-1764)
